# Data: the supplement of paper PMC6411743
# The chains behind the UniProt entries cited, without tags or fusion partners. Where a name states a change or a piece, a line headed by the entry shows the natural chain unless it says otherwise.
# UniProt O14924: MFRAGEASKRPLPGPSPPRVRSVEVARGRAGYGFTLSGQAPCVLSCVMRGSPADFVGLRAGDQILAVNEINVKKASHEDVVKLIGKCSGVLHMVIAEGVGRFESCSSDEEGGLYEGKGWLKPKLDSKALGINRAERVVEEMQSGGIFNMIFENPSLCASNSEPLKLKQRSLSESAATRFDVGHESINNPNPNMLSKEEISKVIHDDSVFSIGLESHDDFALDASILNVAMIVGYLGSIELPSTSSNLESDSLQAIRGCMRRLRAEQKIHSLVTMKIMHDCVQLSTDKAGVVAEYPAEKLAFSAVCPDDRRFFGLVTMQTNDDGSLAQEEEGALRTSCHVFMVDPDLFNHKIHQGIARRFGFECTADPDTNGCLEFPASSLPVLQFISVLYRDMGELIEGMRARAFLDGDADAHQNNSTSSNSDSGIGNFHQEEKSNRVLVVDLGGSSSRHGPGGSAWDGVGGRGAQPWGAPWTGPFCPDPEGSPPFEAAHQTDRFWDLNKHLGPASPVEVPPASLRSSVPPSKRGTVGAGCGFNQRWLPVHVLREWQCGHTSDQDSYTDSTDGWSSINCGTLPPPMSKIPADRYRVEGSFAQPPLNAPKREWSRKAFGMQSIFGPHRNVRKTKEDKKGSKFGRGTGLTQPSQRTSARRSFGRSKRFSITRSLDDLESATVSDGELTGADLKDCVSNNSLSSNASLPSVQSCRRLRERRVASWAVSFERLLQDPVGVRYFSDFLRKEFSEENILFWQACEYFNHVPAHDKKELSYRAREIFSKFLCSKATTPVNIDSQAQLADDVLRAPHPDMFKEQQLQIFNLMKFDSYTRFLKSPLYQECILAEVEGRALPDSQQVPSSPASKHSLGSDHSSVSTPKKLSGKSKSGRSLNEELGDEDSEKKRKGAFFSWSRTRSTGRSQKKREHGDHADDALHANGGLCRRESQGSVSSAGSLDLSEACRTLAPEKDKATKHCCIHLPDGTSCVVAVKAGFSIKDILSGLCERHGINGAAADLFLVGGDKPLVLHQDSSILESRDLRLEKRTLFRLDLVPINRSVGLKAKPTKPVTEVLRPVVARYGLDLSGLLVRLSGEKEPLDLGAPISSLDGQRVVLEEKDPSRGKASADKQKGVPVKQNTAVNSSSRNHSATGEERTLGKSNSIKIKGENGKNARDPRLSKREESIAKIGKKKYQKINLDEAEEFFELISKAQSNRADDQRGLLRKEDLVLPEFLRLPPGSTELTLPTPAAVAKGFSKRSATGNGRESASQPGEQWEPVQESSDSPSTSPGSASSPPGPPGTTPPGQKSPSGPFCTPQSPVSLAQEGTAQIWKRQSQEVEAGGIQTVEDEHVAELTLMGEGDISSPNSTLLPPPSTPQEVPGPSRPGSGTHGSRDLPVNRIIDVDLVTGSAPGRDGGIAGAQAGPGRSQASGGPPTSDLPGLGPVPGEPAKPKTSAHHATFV
# UniProt O15111: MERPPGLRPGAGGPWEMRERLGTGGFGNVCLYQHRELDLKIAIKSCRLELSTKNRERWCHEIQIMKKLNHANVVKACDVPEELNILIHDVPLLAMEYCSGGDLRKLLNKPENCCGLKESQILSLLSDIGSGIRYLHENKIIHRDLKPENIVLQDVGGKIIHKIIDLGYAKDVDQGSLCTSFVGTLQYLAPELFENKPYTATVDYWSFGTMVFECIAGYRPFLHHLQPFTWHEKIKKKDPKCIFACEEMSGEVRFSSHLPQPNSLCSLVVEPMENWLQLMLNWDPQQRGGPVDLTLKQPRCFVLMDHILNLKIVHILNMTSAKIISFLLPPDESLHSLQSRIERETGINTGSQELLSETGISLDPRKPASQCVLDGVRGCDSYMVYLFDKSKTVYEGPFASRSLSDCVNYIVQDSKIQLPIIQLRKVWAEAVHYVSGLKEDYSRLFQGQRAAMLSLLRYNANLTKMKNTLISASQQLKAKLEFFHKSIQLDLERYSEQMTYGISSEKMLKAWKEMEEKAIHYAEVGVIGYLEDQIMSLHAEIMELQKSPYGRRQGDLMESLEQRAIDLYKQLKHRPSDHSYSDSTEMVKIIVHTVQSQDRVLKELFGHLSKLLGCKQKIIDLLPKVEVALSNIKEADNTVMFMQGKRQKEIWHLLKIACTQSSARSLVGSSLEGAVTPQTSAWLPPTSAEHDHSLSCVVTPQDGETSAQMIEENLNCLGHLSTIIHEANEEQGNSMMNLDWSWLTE
# UniProt O43324: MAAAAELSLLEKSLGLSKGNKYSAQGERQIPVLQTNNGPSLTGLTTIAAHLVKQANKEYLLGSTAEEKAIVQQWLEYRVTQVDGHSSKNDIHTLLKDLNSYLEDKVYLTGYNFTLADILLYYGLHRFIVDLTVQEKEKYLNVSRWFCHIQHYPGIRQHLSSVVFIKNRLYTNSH
# UniProt O15117, whole entry: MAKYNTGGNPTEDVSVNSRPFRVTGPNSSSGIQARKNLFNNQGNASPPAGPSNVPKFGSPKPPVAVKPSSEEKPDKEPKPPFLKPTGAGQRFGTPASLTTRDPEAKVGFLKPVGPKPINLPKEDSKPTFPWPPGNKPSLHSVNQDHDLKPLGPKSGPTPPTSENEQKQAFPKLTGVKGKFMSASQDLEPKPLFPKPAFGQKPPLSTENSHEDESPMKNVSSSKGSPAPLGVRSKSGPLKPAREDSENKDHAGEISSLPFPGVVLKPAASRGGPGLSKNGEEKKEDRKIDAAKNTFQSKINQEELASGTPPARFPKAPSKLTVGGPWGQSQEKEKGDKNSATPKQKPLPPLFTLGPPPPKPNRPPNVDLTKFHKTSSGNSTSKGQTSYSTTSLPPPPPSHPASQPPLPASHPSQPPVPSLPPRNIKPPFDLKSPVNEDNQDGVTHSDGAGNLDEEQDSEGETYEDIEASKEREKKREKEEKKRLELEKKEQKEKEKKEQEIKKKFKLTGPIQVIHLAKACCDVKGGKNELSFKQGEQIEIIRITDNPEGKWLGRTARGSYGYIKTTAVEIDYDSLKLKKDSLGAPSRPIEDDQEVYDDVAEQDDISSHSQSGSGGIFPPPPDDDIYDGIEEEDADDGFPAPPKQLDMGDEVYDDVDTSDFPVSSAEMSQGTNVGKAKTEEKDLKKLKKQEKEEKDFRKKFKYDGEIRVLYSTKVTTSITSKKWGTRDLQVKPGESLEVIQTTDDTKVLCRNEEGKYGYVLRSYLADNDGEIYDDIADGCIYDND
# UniProt O43583: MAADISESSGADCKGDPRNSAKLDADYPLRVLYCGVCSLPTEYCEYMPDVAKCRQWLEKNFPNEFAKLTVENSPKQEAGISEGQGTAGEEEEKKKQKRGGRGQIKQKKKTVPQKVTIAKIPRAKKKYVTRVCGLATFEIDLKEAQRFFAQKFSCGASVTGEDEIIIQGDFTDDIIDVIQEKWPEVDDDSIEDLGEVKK
# UniProt O14908: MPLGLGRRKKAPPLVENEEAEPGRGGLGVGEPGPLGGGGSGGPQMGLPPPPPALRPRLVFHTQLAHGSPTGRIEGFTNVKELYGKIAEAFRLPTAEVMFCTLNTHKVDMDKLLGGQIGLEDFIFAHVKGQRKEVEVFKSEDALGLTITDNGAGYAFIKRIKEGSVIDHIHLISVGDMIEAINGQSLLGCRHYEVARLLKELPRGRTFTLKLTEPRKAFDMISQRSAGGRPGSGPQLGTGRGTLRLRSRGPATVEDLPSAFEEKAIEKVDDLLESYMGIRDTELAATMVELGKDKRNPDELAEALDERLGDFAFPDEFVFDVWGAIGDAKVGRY
# UniProt O00115: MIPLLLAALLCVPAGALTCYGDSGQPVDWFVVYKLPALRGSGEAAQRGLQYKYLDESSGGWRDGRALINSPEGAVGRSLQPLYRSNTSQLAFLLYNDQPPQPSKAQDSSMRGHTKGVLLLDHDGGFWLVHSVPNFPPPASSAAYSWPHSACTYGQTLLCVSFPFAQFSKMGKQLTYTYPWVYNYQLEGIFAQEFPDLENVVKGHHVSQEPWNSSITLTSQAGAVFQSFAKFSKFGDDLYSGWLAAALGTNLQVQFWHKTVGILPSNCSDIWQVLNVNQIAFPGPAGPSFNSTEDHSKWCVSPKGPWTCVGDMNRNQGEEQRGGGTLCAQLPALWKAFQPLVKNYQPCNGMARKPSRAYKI
# UniProt O60353: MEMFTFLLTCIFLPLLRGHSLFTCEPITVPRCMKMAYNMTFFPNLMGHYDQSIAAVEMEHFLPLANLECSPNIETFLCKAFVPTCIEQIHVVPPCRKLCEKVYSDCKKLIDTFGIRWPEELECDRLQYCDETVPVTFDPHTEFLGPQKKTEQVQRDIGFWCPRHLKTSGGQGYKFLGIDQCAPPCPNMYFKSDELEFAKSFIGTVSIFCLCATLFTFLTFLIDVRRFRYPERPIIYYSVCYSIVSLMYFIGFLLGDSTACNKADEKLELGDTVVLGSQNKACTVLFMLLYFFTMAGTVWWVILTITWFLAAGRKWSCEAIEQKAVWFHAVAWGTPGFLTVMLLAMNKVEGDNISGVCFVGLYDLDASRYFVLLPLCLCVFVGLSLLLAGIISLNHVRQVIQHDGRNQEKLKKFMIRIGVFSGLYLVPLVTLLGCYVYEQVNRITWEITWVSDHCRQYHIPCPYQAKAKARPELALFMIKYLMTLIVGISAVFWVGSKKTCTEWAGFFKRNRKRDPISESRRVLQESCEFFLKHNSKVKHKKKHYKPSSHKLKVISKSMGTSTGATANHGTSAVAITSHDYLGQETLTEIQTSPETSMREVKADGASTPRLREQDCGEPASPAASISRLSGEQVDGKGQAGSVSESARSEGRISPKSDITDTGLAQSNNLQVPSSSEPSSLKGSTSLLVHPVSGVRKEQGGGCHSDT
# UniProt O43633: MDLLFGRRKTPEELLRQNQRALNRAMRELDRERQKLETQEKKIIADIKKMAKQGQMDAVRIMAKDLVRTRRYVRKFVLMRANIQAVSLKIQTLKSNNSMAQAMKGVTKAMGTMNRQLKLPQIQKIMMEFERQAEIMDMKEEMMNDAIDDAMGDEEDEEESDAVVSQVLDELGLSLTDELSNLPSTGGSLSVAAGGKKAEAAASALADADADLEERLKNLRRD
# UniProt O43567: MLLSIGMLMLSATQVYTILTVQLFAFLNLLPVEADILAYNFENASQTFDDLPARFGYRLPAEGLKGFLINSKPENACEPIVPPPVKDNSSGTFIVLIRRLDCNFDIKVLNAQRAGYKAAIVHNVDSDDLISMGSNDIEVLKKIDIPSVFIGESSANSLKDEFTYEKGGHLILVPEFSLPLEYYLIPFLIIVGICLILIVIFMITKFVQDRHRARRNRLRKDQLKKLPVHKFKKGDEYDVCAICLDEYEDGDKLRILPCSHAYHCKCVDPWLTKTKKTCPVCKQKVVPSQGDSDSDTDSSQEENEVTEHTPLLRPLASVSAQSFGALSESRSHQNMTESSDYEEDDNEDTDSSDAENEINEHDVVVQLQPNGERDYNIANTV
# UniProt O14763, whole entry: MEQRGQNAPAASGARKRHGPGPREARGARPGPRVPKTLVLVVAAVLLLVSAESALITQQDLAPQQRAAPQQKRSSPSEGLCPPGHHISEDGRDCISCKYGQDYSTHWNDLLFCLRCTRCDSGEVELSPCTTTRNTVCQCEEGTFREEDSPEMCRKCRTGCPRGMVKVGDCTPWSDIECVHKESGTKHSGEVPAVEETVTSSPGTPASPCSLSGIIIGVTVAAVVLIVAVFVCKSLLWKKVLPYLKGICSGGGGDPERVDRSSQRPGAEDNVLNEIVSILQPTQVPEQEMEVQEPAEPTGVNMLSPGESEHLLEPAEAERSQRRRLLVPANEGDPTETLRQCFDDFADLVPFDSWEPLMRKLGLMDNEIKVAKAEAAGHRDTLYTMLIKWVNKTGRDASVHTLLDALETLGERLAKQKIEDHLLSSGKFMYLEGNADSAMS
# UniProt P52272: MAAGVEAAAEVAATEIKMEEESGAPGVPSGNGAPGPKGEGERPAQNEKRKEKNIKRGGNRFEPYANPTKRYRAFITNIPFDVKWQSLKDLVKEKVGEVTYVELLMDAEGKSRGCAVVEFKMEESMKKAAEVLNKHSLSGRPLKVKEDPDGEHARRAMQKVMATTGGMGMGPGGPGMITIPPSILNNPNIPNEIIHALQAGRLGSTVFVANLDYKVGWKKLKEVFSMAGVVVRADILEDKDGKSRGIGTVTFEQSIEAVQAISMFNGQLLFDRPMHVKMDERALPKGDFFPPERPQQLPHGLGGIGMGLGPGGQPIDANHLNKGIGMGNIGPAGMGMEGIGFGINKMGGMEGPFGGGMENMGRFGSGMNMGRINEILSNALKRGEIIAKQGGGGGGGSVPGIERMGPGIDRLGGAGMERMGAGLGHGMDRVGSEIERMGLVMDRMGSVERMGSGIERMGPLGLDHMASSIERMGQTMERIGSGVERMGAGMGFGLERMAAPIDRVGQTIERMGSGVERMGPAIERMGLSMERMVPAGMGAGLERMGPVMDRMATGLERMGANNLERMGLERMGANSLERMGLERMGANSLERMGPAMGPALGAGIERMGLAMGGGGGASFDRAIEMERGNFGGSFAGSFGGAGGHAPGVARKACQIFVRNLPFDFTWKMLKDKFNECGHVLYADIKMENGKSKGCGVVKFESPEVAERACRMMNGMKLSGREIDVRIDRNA
# ± gives the standard deviation of the averaged measurements. The entries are a selection whose mix differs from that of the whole data set. Small differences around the control level are noise.
# Compound: Nc1ncnc2c1ncn2[C@@H]1O[C@H](COP(=O)(O)OP(=O)(O)OP(=O)(O)O)[C@@H](O)[C@H]1O [adenosine triphosphate]
# Experiment: NP40-soluble protein abundance relative to vehicle (solubility fold change) (ratio); higher = more soluble protein in presence of ATP
# Method in brief: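 Jurkat crude lysate prepared with a Dounce homogeniser was treated at eight concentrations spanning 0.1 to 10 mM, 10 min at room temperature then 3 min at 37 °C. Solubilisation with 0.8% NP40 and benzonase and ultracentrifugation preceded TMT labelling of the supernatant for LC-MS/MS. Fold change against the detergent-processed vehicle was determined per replicate from vsn-normalised intensities, across three independent experiments.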
target,measurement,setting,value
UniProt O43379 and related entries,NP40-soluble protein abundance,concentration: 0.1mM,1.02 ± 0.024
same,NP40-soluble protein abundance,concentration: 0.5mM,1.026 ± 0.0055
UniProt O14617-5,NP40-soluble protein abundance,concentration: 0.1mM,1 ± 0.038
same,NP40-soluble protein abundance,concentration: 0.5mM,1.02 ± 0.023
SCO2 (UniProt O43819),NP40-soluble protein abundance,concentration: 0.1mM,1.07 ± 0.068
same,NP40-soluble protein abundance,concentration: 0.5mM,1.03 ± 0.032
UniProt O43747 and related entries,NP40-soluble protein abundance,concentration: 0.1mM,1 ± 0.059
same,NP40-soluble protein abundance,concentration: 0.5mM,0.983 ± 0.037
FADS1 (UniProt O60427),NP40-soluble protein abundance,concentration: 0.1mM,0.99 ± 0.025
same,NP40-soluble protein abundance,concentration: 0.5mM,1.04 ± 0.034
UniProt O14924 and related entries,NP40-soluble protein abundance,concentration: 0.1mM,1 ± 0.23
same,NP40-soluble protein abundance,concentration: 0.5mM,1.36 ± 0.44
UniProt O00165 and related entries,NP40-soluble protein abundance,concentration: 0.1mM,1.04 ± 0.022
same,NP40-soluble protein abundance,concentration: 0.5mM,1.07 ± 0.066
ZW10 (UniProt O43264),NP40-soluble protein abundance,concentration: 0.1mM,1.04 ± 0.029
same,NP40-soluble protein abundance,concentration: 0.5mM,1.05 ± 0.032
SCAMP1 (UniProt O15126),NP40-soluble protein abundance,concentration: 0.1mM,0.985 ± 0.023
same,NP40-soluble protein abundance,concentration: 0.5mM,1 ± 0.066
MPHOSPH10 (UniProt O00566),NP40-soluble protein abundance,concentration: 0.1mM,0.985 ± 0.04
same,NP40-soluble protein abundance,concentration: 0.5mM,0.978 ± 0.043
UniProt O43822 and related entries,NP40-soluble protein abundance,concentration: 0.1mM,1.04 ± 0.082
same,NP40-soluble protein abundance,concentration: 0.5mM,1.1 ± 0.023
M0R0F0 and related entries (UniProt P46782),NP40-soluble protein abundance,concentration: 0.1mM,0.892 ± 0.13
same,NP40-soluble protein abundance,concentration: 0.5mM,0.891 ± 0.085
BCAT2 (UniProt O15382),NP40-soluble protein abundance,concentration: 0.1mM,1.06 ± 0.067
same,NP40-soluble protein abundance,concentration: 0.5mM,1.07 ± 0.067
UniProt O43150 and related entries,NP40-soluble protein abundance,concentration: 0.1mM,1.07 ± 0.032
same,NP40-soluble protein abundance,concentration: 0.5mM,1.07 ± 0.083
PFAS (UniProt O15067),NP40-soluble protein abundance,concentration: 0.1mM,1.03 ± 0.033
same,NP40-soluble protein abundance,concentration: 0.5mM,1 ± 0.029
PIK3CD (UniProt O00329),NP40-soluble protein abundance,concentration: 0.1mM,1.1 ± 0.12
same,NP40-soluble protein abundance,concentration: 0.5mM,1.06 ± 0.12
UniProt O15111,NP40-soluble protein abundance,concentration: 0.1mM,1.05 ± 0.073
same,NP40-soluble protein abundance,concentration: 0.5mM,1.07 ± 0.033
UniProt O00139 and related entries,NP40-soluble protein abundance,concentration: 0.1mM,1.02 ± 0.047
same,NP40-soluble protein abundance,concentration: 0.5mM,0.961 ± 0.038
UniProt O00422 and related entries,NP40-soluble protein abundance,concentration: 0.1mM,0.93 ± 0.18
same,NP40-soluble protein abundance,concentration: 0.5mM,1.07 ± 0.22
XPO1 (UniProt O14980),NP40-soluble protein abundance,concentration: 0.1mM,1.02 ± 0.069
same,NP40-soluble protein abundance,concentration: 0.5mM,1.03 ± 0.026
RAD21 (UniProt O60216),NP40-soluble protein abundance,concentration: 0.1mM,0.981 ± 0.026
same,NP40-soluble protein abundance,concentration: 0.5mM,0.993 ± 0.056
GTPBP1 (UniProt O00178),NP40-soluble protein abundance,concentration: 0.1mM,1.04 ± 0.049
same,NP40-soluble protein abundance,concentration: 0.5mM,1.05 ± 0.0017
UniProt O43324 and related entries,NP40-soluble protein abundance,concentration: 0.1mM,0.915 ± 0.14
same,NP40-soluble protein abundance,concentration: 0.5mM,0.869 ± 0.18
OGT (UniProt O15294),NP40-soluble protein abundance,concentration: 0.1mM,1.02 ± 0.027
same,NP40-soluble protein abundance,concentration: 0.5mM,1.02 ± 0.036
UniProt O15117-2|O15117-3,NP40-soluble protein abundance,concentration: 0.1mM,0.982 ± 0.041
same,NP40-soluble protein abundance,concentration: 0.5mM,1.03 ± 0.061
UniProt O14965 and related entries,NP40-soluble protein abundance,concentration: 0.1mM,1.05 ± 0.027
same,NP40-soluble protein abundance,concentration: 0.5mM,1.05 ± 0.051
UniProt O60343 and related entries,NP40-soluble protein abundance,concentration: 0.1mM,1.04 ± 0.038
same,NP40-soluble protein abundance,concentration: 0.5mM,1 ± 0.023
DENR (UniProt O43583),NP40-soluble protein abundance,concentration: 0.1mM,0.901 ± 0.065
same,NP40-soluble protein abundance,concentration: 0.5mM,0.869 ± 0.11
CDC7 (UniProt O00311),NP40-soluble protein abundance,concentration: 0.1mM,1.1 ± 0.12
same,NP40-soluble protein abundance,concentration: 0.5mM,1.09 ± 0.14
RFXAP (UniProt O00287),NP40-soluble protein abundance,concentration: 0.1mM,0.945 ± 0.059
same,NP40-soluble protein abundance,concentration: 0.5mM,0.866 ± 0.067
ARPC5 (UniProt O15511),NP40-soluble protein abundance,concentration: 0.1mM,0.86 ± 0.14
same,NP40-soluble protein abundance,concentration: 0.5mM,0.869 ± 0.17
UniProt O00499-2|O00499-6|O00499-4|O00499-7|O00499-9,NP40-soluble protein abundance,concentration: 0.1mM,0.983 ± 0.025
same,NP40-soluble protein abundance,concentration: 0.5mM,0.987 ± 0.032
UniProt O00592 and related entries,NP40-soluble protein abundance,concentration: 0.1mM,0.924 ± 0.14
same,NP40-soluble protein abundance,concentration: 0.5mM,0.918 ± 0.11
GIPC1 (UniProt O14908),NP40-soluble protein abundance,concentration: 0.1mM,1.02 ± 0.04
same,NP40-soluble protein abundance,concentration: 0.5mM,0.995 ± 0.013
UniProt O00115 and related entries,NP40-soluble protein abundance,concentration: 0.1mM,0.932 ± 0.054
same,NP40-soluble protein abundance,concentration: 0.5mM,0.909 ± 0.015
UniProt O60353 and related entries,NP40-soluble protein abundance,concentration: 0.1mM,1.03 ± 0.16
same,NP40-soluble protein abundance,concentration: 0.5mM,0.962 ± 0.1
UniProt O00267 and related entries,NP40-soluble protein abundance,concentration: 0.1mM,1.06 ± 0.037
same,NP40-soluble protein abundance,concentration: 0.5mM,1.06 ± 0.024
UniProt O15400 and related entries,NP40-soluble protein abundance,concentration: 0.1mM,0.907 ± 0.088
same,NP40-soluble protein abundance,concentration: 0.5mM,0.868 ± 0.1
CHMP2A (UniProt O43633),NP40-soluble protein abundance,concentration: 0.1mM,0.96 ± 0.051
same,NP40-soluble protein abundance,concentration: 0.5mM,0.929 ± 0.11
AKAP8 (UniProt O43823),NP40-soluble protein abundance,concentration: 0.1mM,0.986 ± 0.015
same,NP40-soluble protein abundance,concentration: 0.5mM,1.06 ± 0.11
RNF13 (UniProt O43567),NP40-soluble protein abundance,concentration: 0.1mM,0.966 ± 0.044
same,NP40-soluble protein abundance,concentration: 0.5mM,0.961 ± 0.035
UniProt O14763 and related entries,NP40-soluble protein abundance,concentration: 0.1mM,0.93 ± 0.058
same,NP40-soluble protein abundance,concentration: 0.5mM,0.9535 ± 0.0039
UniProt O15226 and related entries,NP40-soluble protein abundance,concentration: 0.1mM,1.01 ± 0.034
same,NP40-soluble protein abundance,concentration: 0.5mM,0.9032 ± 0.0066
HMGB3 (UniProt O15347),NP40-soluble protein abundance,concentration: 0.1mM,0.862 ± 0.23
same,NP40-soluble protein abundance,concentration: 0.5mM,0.823 ± 0.29
ZBTB24 (UniProt O43167),NP40-soluble protein abundance,concentration: 0.1mM,1.03 ± 0.028
same,NP40-soluble protein abundance,concentration: 0.5mM,1.06 ± 0.079
UniProt O60271 and related entries,NP40-soluble protein abundance,concentration: 0.1mM,1.01 ± 0.033
same,NP40-soluble protein abundance,concentration: 0.5mM,0.995 ± 0.033
ADAM10 (UniProt O14672),NP40-soluble protein abundance,concentration: 0.1mM,1 ± 0.046
same,NP40-soluble protein abundance,concentration: 0.5mM,1.02 ± 0.052
HMGN4 (UniProt O00479),NP40-soluble protein abundance,concentration: 0.1mM,0.999 ± 0.23
same,NP40-soluble protein abundance,concentration: 0.5mM,0.954 ± 0.52
same,NP40-soluble protein abundance,concentration: 1mM,0.97 ± 0.35
same,NP40-soluble protein abundance,concentration: 2mM,1.27 ± 0.44
same,NP40-soluble protein abundance,concentration: 4mM,1.22 ± 0.47
same,NP40-soluble protein abundance,concentration: 6mM,1.67 ± 0.86
same,NP40-soluble protein abundance,concentration: 8mM,1.63 ± 0.72
same,NP40-soluble protein abundance,concentration: 10mM,2.97 ± 2.3
SPTLC1 (UniProt O15269),NP40-soluble protein abundance,concentration: 0.1mM,1.01 ± 0.054
same,NP40-soluble protein abundance,concentration: 0.5mM,1 ± 0.035
same,NP40-soluble protein abundance,concentration: 1mM,0.993 ± 0.026
same,NP40-soluble protein abundance,concentration: 2mM,0.998 ± 0.032
same,NP40-soluble protein abundance,concentration: 4mM,0.997 ± 0.027
same,NP40-soluble protein abundance,concentration: 6mM,0.93 ± 0.096
same,NP40-soluble protein abundance,concentration: 8mM,0.998 ± 0.024
same,NP40-soluble protein abundance,concentration: 10mM,1 ± 0.049
M0QZM1 and related entries (UniProt P52272),NP40-soluble protein abundance,concentration: 0.1mM,0.9963 ± 0.0089
same,NP40-soluble protein abundance,concentration: 0.5mM,1.02 ± 0.043
same,NP40-soluble protein abundance,concentration: 1mM,0.988 ± 0.037
same,NP40-soluble protein abundance,concentration: 2mM,0.999 ± 0.016
same,NP40-soluble protein abundance,concentration: 4mM,1.01 ± 0.032
same,NP40-soluble protein abundance,concentration: 6mM,1.07 ± 0.014
same,NP40-soluble protein abundance,concentration: 8mM,1.04 ± 0.019
same,NP40-soluble protein abundance,concentration: 10mM,1.06 ± 0.024
UniProt O00567,NP40-soluble protein abundance,concentration: 0.1mM,1.02 ± 0.03
same,NP40-soluble protein abundance,concentration: 0.5mM,1.02 ± 0.031
same,NP40-soluble protein abundance,concentration: 1mM,1.04 ± 0.038
same,NP40-soluble protein abundance,concentration: 2mM,1.1 ± 0.033
same,NP40-soluble protein abundance,concentration: 4mM,1.24 ± 0.02
same,NP40-soluble protein abundance,concentration: 6mM,1.38 ± 0.06
same,NP40-soluble protein abundance,concentration: 8mM,1.68 ± 0.064
same,NP40-soluble protein abundance,concentration: 10mM,2.11 ± 0.2
UniProt O00154-4|O00154-5,NP40-soluble protein abundance,concentration: 0.1mM,1.04 ± 0.087
same,NP40-soluble protein abundance,concentration: 0.5mM,0.987 ± 0.025
PGRMC1 (UniProt O00264),NP40-soluble protein abundance,concentration: 0.1mM,0.89 ± 0.19
same,NP40-soluble protein abundance,concentration: 0.5mM,0.831 ± 0.22
MED7 (UniProt O43513),NP40-soluble protein abundance,concentration: 0.1mM,1.04 ± 0.18
same,NP40-soluble protein abundance,concentration: 0.5mM,1.12 ± 0.19
same,NP40-soluble protein abundance,concentration: 1mM,1.23 ± 0.3
same,NP40-soluble protein abundance,concentration: 2mM,1.17 ± 0.091
same,NP40-soluble protein abundance,concentration: 4mM,1.09 ± 0.056
same,NP40-soluble protein abundance,concentration: 6mM,1.2 ± 0.37
same,NP40-soluble protein abundance,concentration: 8mM,1.23 ± 0.26
same,NP40-soluble protein abundance,concentration: 10mM,1.28 ± 0.34

# Three entries from above, reformatted.
target	measurement	setting	value
SPTLC1 (UniProt O15269)	NP40-soluble protein abundance	concentration: 2mM	0.998 ± 0.032
same	NP40-soluble protein abundance	concentration: 4mM	0.997 ± 0.027
same	NP40-soluble protein abundance	concentration: 6mM	0.93 ± 0.096

# Reprinted at random: 2 records from the list, in no set order.
target,measurement,setting,value
MED7 (UniProt O43513),NP40-soluble protein abundance,concentration: 10mM,1.28 ± 0.34
UniProt O15117-2|O15117-3,NP40-soluble protein abundance,concentration: 0.5mM,1.03 ± 0.061
